# In the supplement of paper PMC8090911:
# Where a name gives a salt, the structure may show the parent alone. This is one part of the list. Single values are uncertain, as repeats are few or missing. *1 amine or outer side, *2 acyl side, *3 side chain or, on linkers, in order; H or OH if unused. Where a SMILES comes first, the peptide text is derived from it. Bridges are numbered along the chain shown (N, C = ends). [ ]: non-standard residue; d: D form. The star is where a group is joined. X1 = NC1=N[C@@H]([C@H](N[*:1])C(=O)[*:2])C[C@H](O)N1; ΔAla(Z-3-ureido) = NC(=O)N/C=C(\N)C(=O)O; β3hOrn = NCCC[C@H](N)CC(=O)*; Dap = NC[C@H](N)C(=O)O
# System: p95-ErbB2-MCF7
# Experiment: perinuclear lysosome accumulation (PNLA, size of LAMP2 puncta), robust Z-score vs plate median; higher = more perinuclear lysosome accumulation (reversal of invasive lysosome distribution)
# Details: 5 µM; 24 h
row,SMILES,perinuclear lysosome accumulation
1,CC/C(=C(\c1ccccc1)c1ccc(OCCN(C)C)cc1)c1ccccc1 [Tamoxifen citrate],1.38e-05
2,CCc1oc2ccccc2c1C(=O)c1cc(Br)c(O)c(Br)c1 [Benzbromarone],0.428
3,C#C[C@]1(O)CC[C@H]2[C@@H]3CCC4=C(CCC(=O)C4)[C@H]3CC[C@@]21C [Norethynodrel],-1.08
4,CC[N+](CC)(CC)CCOc1cccc(OCC[N+](CC)(CC)CC)c1OCC[N+](CC)(CC)CC [Gallamine triethiodide],0.646
5,CCOC(=O)[N-]c1c[n+](N2CCOCC2)no1 [Molsidomine],0.435
6,NS(=O)(=O)c1cc2c(cc1Cl)NC(CC1CCCC1)NS2(=O)=O (stereo not given) [Cyclopenthiazide],-1.21
7,CC(C)(C)NCC(O)c1cc(O)cc(O)c1 (stereo not given) [Terbutaline hemisulfate],-0.111
8,O=C(OCCOCCO)c1ccccc1Nc1cccc(C(F)(F)F)c1 [Etofenamate],-0.703
9,O=C(O)[C@H]1/C(=C/CO)O[C@@H]2CC(=O)N21 [Potassium clavulanate],0.965
10,Cc1cnc(C(=O)O)c[n+]1[O-] [Acipimox],-0.481
11,CC(C)(C)NC[C@H](O)COc1ccccc1C1CCCC1 [Penbutolol sulfate],1.79
12,COc1ccc(C(=O)c2ccccc2O)c(O)c1 [Dioxybenzone],0.382
13,Cc1cnc(C(=O)NCCc2ccc(S(=O)(=O)NC(=O)NC3CCCCC3)cc2)cn1 [Glipizide],-1.67
14,CCC1NC(=O)c2cc(S(N)(=O)=O)c(Cl)cc2N1 (stereo not given) [Quinethazone],0.0378
15,COc1ccccc1N1CCN(CCCCNC(=O)c2ccc3ccccc3c2)CC1,1.02
16,"CC(O)(P(=O)(O)O)P(=O)(O)O [Etidronic acid, disodium salt]",-1.01
17,"CCN(CC)CCOc1ccc(C(=C(Cl)c2ccccc2)c2ccccc2)cc1 [Clomiphene citrate (Z,E)]",-0.082
18,CCCCNc1ccc(C(=O)OCCN(C)C)cc1,0.129
19,CN(C)[C@@H]1C(O)=C(C(=O)NCNCCCC[C@H](N)C(=O)O)C(=O)[C@@]2(O)C(O)=C3C(=O)c4c(O)cccc4[C@@](C)(O)[C@H]3C[C@@H]12 [Lymecycline],0.761
20,CN1CCOC(c2ccccc2)c2ccccc2C1 (stereo not given) [Nefopam hydrochloride],-0.661
21,CN1CCC(=C2c3ccccc3CCc3sccc32)CC1 [Pizotifen malate],-1.73
22,Cc1ccccc1C(OCCN(C)C)c1ccccc1 (stereo not given) [Orphenadrine hydrochloride],-0.456
23,O=C1C(O)=C([C@H]2CC[C@H](c3ccc(Cl)cc3)CC2)C(=O)c2ccccc21 [Atovaquone],1.29
24,"CC(C)NCC(O)c1ccc(O)c(O)c1 (single isomer, unassigned; (-)) [(-)-Isoproterenol hydrochloride]",1.09
25,NC(=O)NC1NC(=O)NC1=O (stereo not given) [Allantoin],2.47

# For reference, some entries already given:
row,SMILES,perinuclear lysosome accumulation
4,CC[N+](CC)(CC)CCOc1cccc(OCC[N+](CC)(CC)CC)c1OCC[N+](CC)(CC)CC [Gallamine triethiodide],0.646
5,CCOC(=O)[N-]c1c[n+](N2CCOCC2)no1 [Molsidomine],0.435
6,NS(=O)(=O)c1cc2c(cc1Cl)NC(CC1CCCC1)NS2(=O)=O (stereo not given) [Cyclopenthiazide],-1.21
7,CC(C)(C)NCC(O)c1cc(O)cc(O)c1 (stereo not given) [Terbutaline hemisulfate],-0.111
8,O=C(OCCOCCO)c1ccccc1Nc1cccc(C(F)(F)F)c1 [Etofenamate],-0.703
9,O=C(O)[C@H]1/C(=C/CO)O[C@@H]2CC(=O)N21 [Potassium clavulanate],0.965
10,Cc1cnc(C(=O)O)c[n+]1[O-] [Acipimox],-0.481
11,CC(C)(C)NC[C@H](O)COc1ccccc1C1CCCC1 [Penbutolol sulfate],1.79
12,COc1ccc(C(=O)c2ccccc2O)c(O)c1 [Dioxybenzone],0.382
13,Cc1cnc(C(=O)NCCc2ccc(S(=O)(=O)NC(=O)NC3CCCCC3)cc2)cn1 [Glipizide],-1.67
14,CCC1NC(=O)c2cc(S(N)(=O)=O)c(Cl)cc2N1 (stereo not given) [Quinethazone],0.0378
15,COc1ccccc1N1CCN(CCCCNC(=O)c2ccc3ccccc3c2)CC1,1.02
16,"CC(O)(P(=O)(O)O)P(=O)(O)O [Etidronic acid, disodium salt]",-1.01
17,"CCN(CC)CCOc1ccc(C(=C(Cl)c2ccccc2)c2ccccc2)cc1 [Clomiphene citrate (Z,E)]",-0.082
18,CCCCNc1ccc(C(=O)OCCN(C)C)cc1,0.129
19,CN(C)[C@@H]1C(O)=C(C(=O)NCNCCCC[C@H](N)C(=O)O)C(=O)[C@@]2(O)C(O)=C3C(=O)c4c(O)cccc4[C@@](C)(O)[C@H]3C[C@@H]12 [Lymecycline],0.761

# Next part.

row,SMILES,perinuclear lysosome accumulation
1,CN(C)CCOC(c1ccc(Cl)cc1)c1ccccn1 (stereo not given) [Carbinoxamine maleate salt],-0.593
2,O=C1CCc2ccc(OCCCCN3CCN(c4cccc(Cl)c4Cl)CC3)cc2N1 [Aripiprazole],-0.0423
3,COC(=O)C1=C(C)NC(C)=C(C(=O)OCC(C)C)C1c1ccccc1[N+](=O)[O-] (stereo not given) [Nisoldipine],1.35
4,CN1CCN(c2c(F)cc3c(=O)c(C(=O)O)cn4c3c2SCC4)CC1 [Rufloxacin],-0.257
5,CCC(C)n1ncn(-c2ccc(N3CCN(c4ccc(OCC5COC(Cn6cncn6)(c6ccc(Cl)cc6Cl)O5)cc4)CC3)cc2)c1=O (stereo not given) [Itraconazole],3.8
6,Cc1cccc(Nc2ccccc2C(=O)O)c1C [Mefenamic acid],-1.2
7,C[n+]1ccccc1/C=N/O [Pralidoxime chloride],0.725
8,O=C(O)CCNC(=O)c1ccc(/N=N/c2ccc(O)c(C(=O)O)c2)cc1 [Balsalazide Sodium],-0.364
9,O=C1OC(CN2CCOCC2)CN1/N=C/c1ccc([N+](=O)[O-])o1 (stereo not given) [Furaltadone hydrochloride],-0.225
10,O=C1NCCN1CCN1CCC(c2cn(-c3ccc(F)cc3)c3ccc(Cl)cc23)CC1 [Sertindole],2.52
11,O=C1CCC(N2C(=O)c3ccccc3C2=O)C(=O)N1 (stereo not given) [Thalidomide],-0.873
12,Clc1ccc(C(Cn2ccnc2)OCc2csc3c(Cl)cccc23)c(Cl)c1 (stereo not given) [Sertaconazole nitrate],-0.423
13,CC(=O)OCC1=C(C(=O)O)N2C(=O)[C@@H](NC(=O)Cc3cccs3)[C@H]2SC1 [Cephalothin sodium salt],0.97
14,CCN(CC)CCNC(=O)COc1ccc(OC)cc1 [Mefexamide hydrochloride],0.155
15,CCCCc1nc(Cl)c(CO)n1Cc1ccc(-c2ccccc2-c2nnn[nH]2)cc1 [Losartan],0.417
16,CC1(C)S[C@@H]2[C@H](NC(=O)Cc3ccccc3)C(=O)N2[C@H]1C(=O)O [Benzylpenicillin sodium],0.99
17,CC1(C)S[C@@H]2[C@H](NC(=O)Cc3ccccc3)C(=O)N2[C@H]1C(=O)O [Benzathine benzylpenicillin],-1.56
18,CCC(=O)OCC(=O)[C@@]1(OC(=O)CC)[C@@H](C)C[C@H]2[C@@H]3CCC4=CC(=O)C=C[C@]4(C)[C@@]3(Cl)[C@@H](O)C[C@@]21C [Beclomethasone dipropionate],-0.584
19,CCN(CC)Cc1cc(Nc2ccnc3cc(Cl)ccc23)ccc1O [Amodiaquin dihydrochloride dihydrate],0.342
20,COc1ccccc1N1CCN(CCCNc2cc(=O)n(C)c(=O)n2C)CC1 [Urapidil hydrochloride],0.721
21,Cn1c(=O)c2c(ncn2CCO)n(C)c1=O [Etofylline],-1.27
22,"CC(C)NCC(O)c1cc(O)cc(O)c1 (stereo not given) [Metaproterenol sulfate, orciprenaline sulfate]",-0.78
23,C#CCN(C)CCCOc1ccc(Cl)cc1Cl [Clorgyline hydrochloride],-0.373
24,CC(=O)SCC(Cc1ccccc1)C(=O)NCC(=O)OCc1ccccc1 (stereo not given) [Racecadotril],1.24
25,C[C@H](CCC(=O)O)[C@H]1CC[C@H]2[C@@H]3CC[C@@H]4C[C@H](O)CC[C@]4(C)[C@H]3CC[C@]12C [Lithocholic acid],-0.724

row,SMILES,perinuclear lysosome accumulation
1,COC(=O)C1=C(C)NC(C)=C(C(=O)OC(C)C)C1c1cccc2nonc12 (stereo not given) [Isradipine],-0.0671
2,COCC(=O)Nc1c(I)c(C(=O)NCC(O)CO)c(I)c(C(=O)N(C)CC(O)CO)c1I (stereo not given) [Iopromide],-0.993
3,"C[C@@]1(O)CCOC(=O)C1 [Mevalonic-D, L acid lactone]",0.841
4,O=C(O)CCCC[C@@H]1SC[C@@H]2NC(=O)N[C@@H]21 [Biotin],0.626
5,CC1COc2c(N3CCN(C)CC3)c(F)cc3c(=O)c(C(=O)O)cn1c23 (stereo not given) [Ofloxacin],-2.09
6,CC(C)C(=O)Nc1ccc([N+](=O)[O-])c(C(F)(F)F)c1 [Flutamide],-0.123
7,Cn1cnc([N+](=O)[O-])c1Sc1ncnc2[nH]cnc12 [Azathioprine],0.0549
8,OCCN1C[C@H](O)[C@@H](O)[C@H](O)[C@H]1CO [Miglitol],-0.753
9,NCC[C@H](O)C(=O)N[C@@H]1C[C@H](N)[C@@H](O[C@H]2O[C@H](CN)[C@@H](O)[C@H](O)[C@H]2O)[C@H](O)[C@H]1O[C@H]1O[C@H](CO)[C@@H](O)[C@H](N)[C@H]1O [Amikacin hydrate],-0.122
10,Fc1ccc([C@@H]2CCNC[C@H]2COc2ccc3c(c2)OCO3)cc1 [Paroxetine Hydrochloride],-3.23
11,Nc1nc(O)c2ncn(CCC(CO)CO)c2n1 [Penciclovir],0.938
12,O=c1[nH]cnc2c1ncn2[C@H]1CC[C@@H](CO)O1 [Didanosine],-1.57
13,NCCC[C@H](N)CC(=O)N[C@H]1CNC(=O)[C@H]([C@H]2C[C@H](O)NC(N)=N2)NC(=O)/C(=C/NC(N)=O)NC(=O)[C@H](CO)NC(=O)[C@H](CO)NC1=O [Viomycin sulfate] (β3hOrn-[Dap]SS[ΔAla(Z-3-ureido)][X1]; lactam 1-C),-0.391
14,NC(CO)C(=O)NNCc1ccc(O)c(O)c1O (stereo not given) [Benserazide hydrochloride],0.0512
15,CN1CCC(OC(c2ccccc2)c2ccccc2)CC1 [Diphenylpyraline hydrochloride],-0.123
16,Clc1ccc(Nc2nnc(Cc3ccncc3)c3ccccc23)cc1 [Vatalanib],0.514
17,Cc1cc(N)c2ccccc2[n+]1CCCCCCCCCC[n+]1c(C)cc(N)c2ccccc21 [Dequalinium dichloride],2.42
18,Nc1ccn([C@@H]2CS[C@H](CO)O2)c(=O)n1 [Lamivudine],0.286
19,COc1ccccc1OCC(O)COC(N)=O (stereo not given) [Methocarbamol],-0.242
20,NC1CCN(c2nc3c(cc2F)c(=O)c(C(=O)O)cn3-c2ccc(F)cc2F)C1 (stereo not given) [Tosufloxacin hydrochloride],-1.85
21,COC(=O)Nc1nc2cc([S+]([O-])c3ccccc3)ccc2[nH]1 (stereo not given) [Oxfendazol],-0.427
22,"c1ccc(CNc2ncnc3nc[nH]c23)cc1 [Aminopurine, 6-benzyl]",0.935
23,CN1Cc2c(N)cccc2C(c2ccccc2)C1 (stereo not given) [Nomifensine maleate],0.356
24,CC(C)(O)c1ccccc1CC[C@@H](SCC1(CC(=O)O)CC1)c1cccc(/C=C/c2ccc3ccc(Cl)cc3n2)c1 [Montelukast],0.774
25,CCOC(=O)[C@@](C)(N)Cc1ccc(O)c(O)c1 [Methyldopate hydrochloride],-0.242

# Taken from the entries so far (2 entries):
row,SMILES,perinuclear lysosome accumulation
21,CN1CCC(=C2c3ccccc3CCc3sccc32)CC1 [Pizotifen malate],-1.73
22,Cc1ccccc1C(OCCN(C)C)c1ccccc1 (stereo not given) [Orphenadrine hydrochloride],-0.456
